{"source": "patent US10624965B2", "about": "(SUSAVION BIOSCIENCES, INC., priority 2014, dated 2020)", "assay": "peptide synthesis", "conditions": "whole synthesis", "note": "Strings that start with PEPTIDE1 are HELM notation: dots part the residues, brackets hold end groups and non-standard residues."}
{"substance": "PEPTIDE1{V.Q.A.T.Q.S.N.Q.H.T.P.R.G.G.G.S.K.K.[am]}|PEPTIDE2{V.Q.A.T.Q.S.N.Q.H.T.P.R.G.G.G.S}|PEPTIDE3{V.Q.A.T.Q.S.N.Q.H.T.P.R.G.G.G.S.K}|PEPTIDE4{V.Q.A.T.Q.S.N.Q.H.T.P.R.G.G.G.S}$PEPTIDE1,PEPTIDE2,17:R3-16:R2|PEPTIDE1,PEPTIDE3,18:R3-17:R2|PEPTIDE3,PEPTIDE4,17:R3-16:R2$$$V2.0", "values": [{"measurement": "final HPLC purity", "value": ">95", "unit": "%"}]}
